Sequences of proteins named here, by UniProt entry; tags and fusion partners are left off. A change or cut given only in a name is not applied to a line headed by its entry.
UniProt Q12809: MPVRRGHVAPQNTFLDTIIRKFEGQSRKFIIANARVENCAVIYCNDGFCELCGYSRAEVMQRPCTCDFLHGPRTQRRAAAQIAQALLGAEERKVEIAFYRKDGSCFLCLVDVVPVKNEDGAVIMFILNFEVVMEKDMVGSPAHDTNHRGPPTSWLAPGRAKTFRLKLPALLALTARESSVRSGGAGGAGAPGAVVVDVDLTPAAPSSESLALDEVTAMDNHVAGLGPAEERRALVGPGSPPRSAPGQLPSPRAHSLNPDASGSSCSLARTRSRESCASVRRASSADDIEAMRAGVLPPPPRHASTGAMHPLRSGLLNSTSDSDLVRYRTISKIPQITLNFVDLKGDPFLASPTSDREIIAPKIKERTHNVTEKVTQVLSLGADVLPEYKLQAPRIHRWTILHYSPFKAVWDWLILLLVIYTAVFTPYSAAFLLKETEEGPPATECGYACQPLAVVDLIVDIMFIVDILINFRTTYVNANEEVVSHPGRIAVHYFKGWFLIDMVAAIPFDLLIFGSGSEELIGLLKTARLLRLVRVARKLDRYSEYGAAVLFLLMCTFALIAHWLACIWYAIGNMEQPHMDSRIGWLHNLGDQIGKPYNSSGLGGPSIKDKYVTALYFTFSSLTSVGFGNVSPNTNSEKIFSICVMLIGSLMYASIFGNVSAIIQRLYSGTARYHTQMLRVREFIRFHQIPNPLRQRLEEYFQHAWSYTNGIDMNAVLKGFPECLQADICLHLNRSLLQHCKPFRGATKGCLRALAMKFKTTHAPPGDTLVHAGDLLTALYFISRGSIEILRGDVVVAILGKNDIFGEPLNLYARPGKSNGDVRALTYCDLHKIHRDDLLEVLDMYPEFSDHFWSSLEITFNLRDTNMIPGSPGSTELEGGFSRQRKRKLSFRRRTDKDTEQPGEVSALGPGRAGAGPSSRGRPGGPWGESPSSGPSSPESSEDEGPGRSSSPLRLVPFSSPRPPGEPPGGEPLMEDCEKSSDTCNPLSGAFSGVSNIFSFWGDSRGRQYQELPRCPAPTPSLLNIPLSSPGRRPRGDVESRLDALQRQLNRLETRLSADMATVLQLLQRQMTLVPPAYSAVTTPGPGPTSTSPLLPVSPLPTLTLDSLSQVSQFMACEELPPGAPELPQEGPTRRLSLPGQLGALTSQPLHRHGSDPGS

In ChEMBL document CHEMBL2146411, “Discovery of 3H-imidazo[4,5-c]quinolin-4(5H)-ones as potent and selective dipeptidyl peptidase IV (DPP-4) inhibitors” (Bioorg Med Chem, 2012):

Target: Voltage-gated inwardly rectifying potassium channel KCNH2 (Homo sapiens, UniProt Q12809)

Structure (SMILES): COCc1ccc2c3nc(N4CCC[C@@H](N)C4)n(Cc4ccccc4Cl)c3c(=O)n(C)c2c1
- IC50: 1.81 µM
